# Primary screen of a compound library

Protein sequences, listed by entry. Tags and fused reporters are not part of them.
UniProt E9BF75, entry or part of it: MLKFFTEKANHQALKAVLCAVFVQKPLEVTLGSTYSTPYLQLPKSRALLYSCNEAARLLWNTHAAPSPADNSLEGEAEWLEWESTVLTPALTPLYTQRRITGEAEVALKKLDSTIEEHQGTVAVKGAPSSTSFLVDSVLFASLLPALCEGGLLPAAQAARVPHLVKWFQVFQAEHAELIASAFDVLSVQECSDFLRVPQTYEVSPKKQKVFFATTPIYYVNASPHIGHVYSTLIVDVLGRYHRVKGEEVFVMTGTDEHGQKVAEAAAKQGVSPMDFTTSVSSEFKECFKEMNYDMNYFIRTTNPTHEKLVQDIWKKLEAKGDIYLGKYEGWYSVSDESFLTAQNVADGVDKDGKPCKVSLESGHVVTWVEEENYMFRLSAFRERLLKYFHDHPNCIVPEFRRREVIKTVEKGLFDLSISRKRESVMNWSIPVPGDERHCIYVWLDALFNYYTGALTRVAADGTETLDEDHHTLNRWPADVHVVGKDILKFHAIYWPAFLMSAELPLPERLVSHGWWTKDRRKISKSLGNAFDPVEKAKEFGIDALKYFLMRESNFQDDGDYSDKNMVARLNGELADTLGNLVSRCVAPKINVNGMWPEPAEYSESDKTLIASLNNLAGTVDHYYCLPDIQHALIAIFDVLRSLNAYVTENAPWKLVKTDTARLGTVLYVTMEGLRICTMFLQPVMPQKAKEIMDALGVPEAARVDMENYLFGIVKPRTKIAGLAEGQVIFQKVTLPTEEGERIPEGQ

All values are in %.
The controls that fix the scale are not given in the record; negative values are as filed.
Compounds were drawn at random from those tested, without regard to their results.

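Methionyl-tRNA synthetase (putative), Leishmania donovani (UniProt E9BF75). Primary screen of methionyl-tRNA synthetase; the read-out is not stated. The test concentration is not given. Values are per cent inhibition. Size under these conditions: about 68,000 compounds, about 24 of them at 50% or above in at least one test.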

Cc1cnn(CC2CCCN2c2ncnc3c2CCC3)c1 (stereo unspecified) gave 1.047%. Result for CN(Cc1ccno1)c1nc(C2CCCC2)nc2c1cnn2C was 18.59%. With COc1cc(CN2CCCC23CCN(c2ccccn2)CC3)ccc1F the screen gave 15.6%. For COc1cccc(CN2CCC(c3nccn3C(C)C)CC2)c1 the result was 13.39%. For COc1cccc(CN2CCN(CC(C)C)C(=O)C2C)c1O (stereo unspecified) the result was 16.67%. CC(C)(C(=O)N1CCCC(OCc2cccnc2)C1)n1cccc1 (stereo unspecified) gave 7.902%. Result for COc1ccc(C2CCCCCN2S(C)(=O)=O)cc1 (stereo unspecified) was -0.7444%.

CCS(=O)(=O)N1CCC2(CN(c3cccc(F)c3)C(=O)CN2C)C1 (stereo unspecified) gave 9.206%. Result for COc1ccc(CN2CC3(CCNCC3)CCC2=O)c(F)c1F was 0.7732%. With CS(=O)(=O)N1CCO[C@H]2[C@@H](Oc3ncccc3F)CC[C@@H]21 the screen gave 9.051%. COCCN(C)CC1CCCN1S(=O)(=O)c1cc(C)oc1C (stereo unspecified) read 7.124%. Result for Cc1nn(-c2ccccc2)nc1C(=O)N1CCCC1c1cnn(C)c1 (stereo unspecified) was 9.841%. For CCC(=O)N1CCC2(CC1)c1nc[nH]c1CCN2S(C)(=O)=O the result was 12.39%. CCc1nc(CSCc2csc(CS(C)(=O)=O)n2)cs1 read 19%.

Cc1cccc(CN(Cc2nc3c(cnn3C)c(=O)[nH]2)C2CC2)c1 gave 22.29%. CCCc1noc(C2CC(=O)N(Cc3ccccc3)C2)n1 (stereo unspecified) gave 18.04%. For Cc1ccnc(C(NC(=O)c2ccc(O)nc2C)C2CC2)n1 (stereo unspecified) the result was -7.246%. CC(C)c1nn(C)c(N(C)C)c1CNC1CCOc2c(F)cccc21 (stereo unspecified) read 11.6%. Result for O=C1N(Cc2ccccn2)C[C@H]2CN(S(=O)(=O)c3ccccc3)CCN12 was 9.774%. Result for Cc1ccoc1C(=O)N1CCO[C@H]2[C@H](OCc3ccncc3)CC[C@@H]21 was 17.26%. For CC(C)c1cc(C(=O)NCCc2nc(-c3cccnc3)n[nH]2)[nH]n1 the result was 5.233%.

Cc1cc(C)cc(CN2CCN(C(=O)COCC3CCCO3)CC2=O)c1 (stereo unspecified) gave 14.4%. For Clc1ccc(-c2nnc(CNCCn3cccn3)o2)c(Cl)c1 the result was 6.479%. With COC[C@@]12CCC[C@@H]1CN(C(=O)COC1CCCC1)C2 the screen gave 0.5495%. For CCSc1cc(C(=O)NCCC(=O)Nc2ccccn2)ccn1 the result was 4.433%. CNC(=O)[C@@]12CCO[C@@H]1CCN(Cc1scnc1C)C2 read 6.863%. Result for COc1ccc(NC(=O)Cn2nc(C)ccc2=O)cc1OC was 13.69%. CC(=O)N1CCN2C(=O)N(Cc3ccc(F)cc3)C[C@H]2C1 gave 10.44%.

COc1cccc(SCCCn2cnc3c(N)ncnc32)c1 gave 15.89%. Cc1ccc(S(=O)(=O)N2Cc3c(CN(C)C)nn(C)c3C2)cc1 read 8.511%. CC[C@H]1CN2CC[C@H]1C[C@@H]2CNCc1ccc(N(C)C)cc1 gave 7.143%. With Cc1ccccc1CNC(=O)CN1CCCC(Cc2nccn2C)C1 (stereo unspecified) the screen gave 27.22%.

4 of the entries, repeated:

O=C1N(Cc2ccccn2)C[C@H]2CN(S(=O)(=O)c3ccccc3)CCN12 gave 9.774%.
Cc1ccnc(C(NC(=O)c2ccc(O)nc2C)C2CC2)n1 (stereo unspecified) gave -7.246%.
COC[C@@]12CCC[C@@H]1CN(C(=O)COC1CCCC1)C2 gave 0.5495%.
CCc1nc(CSCc2csc(CS(C)(=O)=O)n2)cs1 gave 19%.

Source: ChEMBL document CHEMBL3988442, “University of Dundee, Small-Polar-MMV Screening Library” (2021).